These are yes or no findings as the source states them, for the method shown. Some entries that bind do so weakly or less than the wild type.
T1: FAM19A5 epitope fragment F5, BSA-conjugated (human)
T1 sequence (peptide, conjugated to BSA): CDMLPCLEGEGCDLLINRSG

Chains of the proteins cited; added tags and fusions are not shown. Lines headed by an entry give the natural chain unless they say otherwise; changes in a name come on top.
UniProt Q7Z5A7: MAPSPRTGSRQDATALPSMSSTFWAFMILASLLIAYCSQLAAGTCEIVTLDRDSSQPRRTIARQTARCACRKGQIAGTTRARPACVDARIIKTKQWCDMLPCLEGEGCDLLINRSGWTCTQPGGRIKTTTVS

T2: F2-11-BSA (#11) (human)
T2 sequence (peptide, conjugated to BSA): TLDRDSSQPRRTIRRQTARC


How the values were obtained:
[1] = target: Human FAM19A5 protein (Wild Type) (human) (UniProt Q7Z5A7); experiment: epitope mapping (data not shown); two-site sandwich ELISA
[2] = target: T1, FAM19A5 epitope fragment F5, BSA-conjugated (human); experiment: ELISA, plate-coated BSA-conjugated FAM19A5 fragments F1-F6
[3] = target: FAM19A5 mutant M5 (human) (UniProt Q7Z5A7); experiment: ELISA on phage-expressed FAM19A5 mutants M1-M8
[4] = target: T2, F2-11-BSA (#11) (human); experiment: ELISA, plate-coated F2 mutant peptides (BSA-conjugated)

Row | binding [1] | binding [2] | Binder | also measured
1 | binds | – | Anti-FAM19A5 antibody P2-A03 (antibody, V domains shown) VH: QSVEESGGRLVTPGTPLTLTCTVSGFSLNNYDMSWVRQAPGKGLEYIGFMDTDGSAYYATWAKGRFTISRTSTTVDLKMTSPTTEDTATYFCARRGSSYYGGIDIWGPGTPVTVSL VL: ELDLTQTPASVSEPVGGTVTIKCQASQSIGGNLAWYQQKPGQPPKLLIYRASTLASGVPSRFKGSGSGTDFTLTISDLECADAATYYCQSPAYDPAAYVGNAFGGGTELEIL | –
2 | – | binds | Anti-FAM19A5 antibody P2-C12 (antibody, V domains shown) VH: QSLEESGGRLVTPGTPLTLTCTVSGFSLSTYAVTWVRQAPGKGLEWIGYINWRGGTSYANWAKGRFTISKTSSTTVDLKMTSPTTEDTATYFCARDASSGAAFGSYGMDPWGPGTLVTVSS VL: ELDMTQTPSSVSAAVGGTVTIKCQASQSISSYLSWYQQKPGQPPKLLIYEASKLASGVPSRFSGSGYGTEFTLTISDLECADAATYYCQQGYSSTNVWNAFGGGTNVEIK | –

Second part, the binder before the results:

Row | Binder | binding [1] | binding [2] | also measured
3 | Anti-FAM19A5 antibody 13B4 (antibody, V domains shown) VH: QVQLQESGPGLVKPSGTLSLNCAVSGGSISSSNWWSWVRQPPGKGLEWIGEIYHGGTTNYNPSLKGRVTMSVDKTKNQFSLRLSSVTAVDTAVYYCARWQLVGGLDVWGQGTTVTVSS VL: SYELTQPLSVSVSPGQTASITCSGDKLGNVYASWYQQKPGQSPTLVIYQDNKRPSGIPERFSGSNSGKTATLTISGTQALDEADYYCQAWDSSTAVFGGGTKLTVL | binds | – | –
4 | Anti-FAM19A5 antibody 2-13 (antibody, V domains shown) VH: AVTLDESGGGLQTPGGALSLVCKASGFTFSSHGMFWVRQTPGKGLEYVAEITNDGSGTNYGSAVKGRATISRDNGQSTVRLQLNNLRAEDTGTYFCARSTYECPGGFSCWGDTGQIDAWGHGTEVIVSS VL: ALTQPSSVSANPGETVKITCSGGSYSYGWFQQKSPGSALVTVIYWDDERPSDIPSRFSGALSGSTNTLTITGVQADDEAVYFCGTEDISGTAGVFGAGTTLTVL | – | – | binding [3]: binds
5 | Anti-FAM19A5 antibody 1-28 (antibody, V domains shown) VH: AVTLDESGGGLQTPGGALSLVCKASGFDFSDYGMGWVRQAPGKGLEWVAAIRSDGSNPSYGSAVKGRATISKDNGRSTVRLQLNNLRAEDTATYYCAKDGNGYCALDAYRSGGYSCGVYPGSIDAWGHGTEVIVSS VL: ALTQPSSVSANLEGTVEITCSGSGYGYGWYQQKSPGSAPVTVIYQNDKRPSDIPSRFSGSKSGSTGTLTITGVQVEDEAVYYCGSEDSSTLAGIFGAGTTLTVL | – | – | binding [4]: binds
6 | Anti-FAM19A5 antibody 1-65 (antibody, V domains shown) VH: AVTLDESGGGLQTPGGALSLVCKASGFTFSSYQMGWVRQAPGKGLEWVGVINKSGSDTSYGSAVKGRATISRDNGQSTVRLQLNNLRAEDTGTYFCAKGSASYITAATIDAWGHGTEVIVSS VL: ALTQPSSVSANPGETVKITCSGGGSSGYGYGWYQQKSPSSAPLTVIYWNDKRPSDIPSRFSGSKSGSTHTLTITGVQAEDEAVYFCGNDDYSSDSGYVGVFGAGTTLTVL | binds | binds | –
